The list shows a part of the results.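 How the source made its calls: active = dose-dependent thermal stabilisation significant by F-test of dose-response against flat model at 10% FDR; inactive = not significant.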
compound: Nc1nc2c(ncn2[C@@H]2O[C@H](COP(=O)(O)OP(=O)(O)OP(=O)(O)O)[C@@H](O)[C@H]2O)c(=O)[nH]1; assay: dose-dependent thermal stabilisation call (2D-TPP, DLPTP, 10% FDR) (binary (1 = stabilised)); higher = stabilised by the compound; conditions: system: Jurkat gel-filtered lysate; concentration range 1-500 µM

By UniProt entry, the sequences of proteins in these tests, tags left out. Where a name states a change or a piece, a line headed by the entry shows the natural chain unless it says otherwise.
UniProt Q9Y3Q8: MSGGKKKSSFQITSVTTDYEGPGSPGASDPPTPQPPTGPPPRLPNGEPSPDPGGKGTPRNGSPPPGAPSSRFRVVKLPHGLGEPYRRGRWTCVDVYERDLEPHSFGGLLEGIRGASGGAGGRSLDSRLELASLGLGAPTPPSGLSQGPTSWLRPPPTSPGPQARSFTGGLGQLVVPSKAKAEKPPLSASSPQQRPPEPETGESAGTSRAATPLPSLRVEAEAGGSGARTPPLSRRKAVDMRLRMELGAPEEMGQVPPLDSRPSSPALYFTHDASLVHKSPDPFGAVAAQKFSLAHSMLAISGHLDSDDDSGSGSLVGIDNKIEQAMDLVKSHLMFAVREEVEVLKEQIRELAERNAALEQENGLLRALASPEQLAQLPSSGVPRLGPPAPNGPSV
UniProt O14545: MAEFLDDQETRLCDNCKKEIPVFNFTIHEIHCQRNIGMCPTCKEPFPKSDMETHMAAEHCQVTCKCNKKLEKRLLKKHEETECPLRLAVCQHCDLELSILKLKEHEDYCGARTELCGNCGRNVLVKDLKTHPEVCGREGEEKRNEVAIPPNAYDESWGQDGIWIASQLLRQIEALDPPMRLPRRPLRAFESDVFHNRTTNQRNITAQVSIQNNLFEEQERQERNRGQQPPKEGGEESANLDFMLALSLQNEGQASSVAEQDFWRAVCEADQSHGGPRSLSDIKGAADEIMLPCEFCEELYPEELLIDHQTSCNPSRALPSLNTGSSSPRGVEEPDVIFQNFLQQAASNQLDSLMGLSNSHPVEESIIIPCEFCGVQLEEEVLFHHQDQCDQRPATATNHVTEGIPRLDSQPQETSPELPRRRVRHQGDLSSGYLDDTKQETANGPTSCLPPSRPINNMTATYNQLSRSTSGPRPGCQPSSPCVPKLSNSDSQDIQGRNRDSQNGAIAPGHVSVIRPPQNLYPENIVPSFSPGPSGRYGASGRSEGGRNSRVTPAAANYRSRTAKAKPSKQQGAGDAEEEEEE
UniProt P60174, whole entry: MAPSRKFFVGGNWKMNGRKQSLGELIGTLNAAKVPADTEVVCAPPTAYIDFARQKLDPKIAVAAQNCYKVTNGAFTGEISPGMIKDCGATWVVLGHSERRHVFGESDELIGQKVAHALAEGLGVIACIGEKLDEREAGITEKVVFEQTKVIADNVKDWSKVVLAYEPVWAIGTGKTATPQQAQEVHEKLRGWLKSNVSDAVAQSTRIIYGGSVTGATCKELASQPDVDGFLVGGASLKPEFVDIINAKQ
UniProt Q6IPR3: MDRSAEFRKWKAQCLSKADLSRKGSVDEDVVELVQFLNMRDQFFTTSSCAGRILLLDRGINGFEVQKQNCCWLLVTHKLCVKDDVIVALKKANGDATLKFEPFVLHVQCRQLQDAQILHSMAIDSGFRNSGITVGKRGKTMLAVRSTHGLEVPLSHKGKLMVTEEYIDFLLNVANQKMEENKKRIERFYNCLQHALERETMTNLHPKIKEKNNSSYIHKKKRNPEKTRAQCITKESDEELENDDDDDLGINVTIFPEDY
UniProt P63313: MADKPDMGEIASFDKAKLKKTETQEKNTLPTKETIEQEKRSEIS
UniProt Q9GZX9: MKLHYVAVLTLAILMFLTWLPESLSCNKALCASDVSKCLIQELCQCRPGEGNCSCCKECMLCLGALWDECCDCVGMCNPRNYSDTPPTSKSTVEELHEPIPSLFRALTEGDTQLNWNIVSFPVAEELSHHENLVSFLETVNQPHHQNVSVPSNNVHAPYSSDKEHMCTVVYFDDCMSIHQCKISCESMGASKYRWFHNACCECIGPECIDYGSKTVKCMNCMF
UniProt P26368, whole entry: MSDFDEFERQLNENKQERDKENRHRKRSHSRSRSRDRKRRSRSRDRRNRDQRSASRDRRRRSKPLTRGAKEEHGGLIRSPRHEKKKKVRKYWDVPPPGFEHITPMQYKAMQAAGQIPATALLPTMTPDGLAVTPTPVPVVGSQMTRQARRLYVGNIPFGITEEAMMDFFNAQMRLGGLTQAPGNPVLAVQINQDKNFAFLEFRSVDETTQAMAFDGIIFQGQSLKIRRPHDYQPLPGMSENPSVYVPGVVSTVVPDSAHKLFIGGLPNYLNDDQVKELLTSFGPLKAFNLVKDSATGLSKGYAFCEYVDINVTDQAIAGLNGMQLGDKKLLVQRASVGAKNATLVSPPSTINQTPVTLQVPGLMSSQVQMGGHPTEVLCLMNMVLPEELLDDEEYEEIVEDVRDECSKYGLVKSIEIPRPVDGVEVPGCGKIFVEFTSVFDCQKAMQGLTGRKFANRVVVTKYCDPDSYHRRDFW
UniProt O60343: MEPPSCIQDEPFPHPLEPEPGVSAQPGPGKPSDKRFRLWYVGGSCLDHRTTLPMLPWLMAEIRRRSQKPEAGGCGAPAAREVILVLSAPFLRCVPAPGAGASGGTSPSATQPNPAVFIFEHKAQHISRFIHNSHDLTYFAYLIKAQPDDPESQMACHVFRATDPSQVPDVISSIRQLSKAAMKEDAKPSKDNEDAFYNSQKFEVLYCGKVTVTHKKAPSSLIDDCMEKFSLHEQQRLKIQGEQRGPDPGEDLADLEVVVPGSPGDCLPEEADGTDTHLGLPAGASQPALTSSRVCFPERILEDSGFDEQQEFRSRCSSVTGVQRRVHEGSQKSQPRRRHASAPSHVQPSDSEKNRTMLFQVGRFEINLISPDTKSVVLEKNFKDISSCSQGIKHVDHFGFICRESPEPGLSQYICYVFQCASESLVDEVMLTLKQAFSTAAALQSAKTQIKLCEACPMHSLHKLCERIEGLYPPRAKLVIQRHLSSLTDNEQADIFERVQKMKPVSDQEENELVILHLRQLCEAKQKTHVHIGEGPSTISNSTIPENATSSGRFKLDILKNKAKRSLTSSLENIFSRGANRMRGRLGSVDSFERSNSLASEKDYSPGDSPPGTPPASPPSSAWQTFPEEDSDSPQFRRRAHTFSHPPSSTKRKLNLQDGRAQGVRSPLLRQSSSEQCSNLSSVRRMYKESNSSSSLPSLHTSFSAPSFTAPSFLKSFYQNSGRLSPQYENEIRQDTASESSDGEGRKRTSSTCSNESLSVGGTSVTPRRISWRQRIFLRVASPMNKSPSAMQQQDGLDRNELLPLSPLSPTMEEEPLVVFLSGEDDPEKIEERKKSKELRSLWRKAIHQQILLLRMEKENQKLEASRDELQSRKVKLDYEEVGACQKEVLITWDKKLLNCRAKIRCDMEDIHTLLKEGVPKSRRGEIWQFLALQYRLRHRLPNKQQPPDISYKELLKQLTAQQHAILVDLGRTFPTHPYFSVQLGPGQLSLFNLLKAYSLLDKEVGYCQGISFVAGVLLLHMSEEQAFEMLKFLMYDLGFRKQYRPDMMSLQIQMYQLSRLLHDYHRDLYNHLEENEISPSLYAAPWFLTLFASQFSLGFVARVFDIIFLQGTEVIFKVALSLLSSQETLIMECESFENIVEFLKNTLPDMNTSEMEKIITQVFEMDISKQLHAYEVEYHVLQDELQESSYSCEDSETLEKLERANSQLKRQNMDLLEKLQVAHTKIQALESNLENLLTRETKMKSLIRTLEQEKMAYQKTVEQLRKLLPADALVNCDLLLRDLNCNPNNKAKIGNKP
UniProt P31483: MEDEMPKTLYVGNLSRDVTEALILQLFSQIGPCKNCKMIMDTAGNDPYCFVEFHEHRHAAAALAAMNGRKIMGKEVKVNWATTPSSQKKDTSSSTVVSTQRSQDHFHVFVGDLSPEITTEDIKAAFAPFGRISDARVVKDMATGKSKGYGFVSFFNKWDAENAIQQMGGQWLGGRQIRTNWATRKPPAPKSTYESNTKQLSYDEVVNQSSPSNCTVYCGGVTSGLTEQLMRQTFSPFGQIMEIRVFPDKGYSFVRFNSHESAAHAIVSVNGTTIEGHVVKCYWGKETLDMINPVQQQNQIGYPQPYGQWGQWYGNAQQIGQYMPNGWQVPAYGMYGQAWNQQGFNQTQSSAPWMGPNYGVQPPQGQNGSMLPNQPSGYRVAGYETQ
UniProt Q9UPQ9, whole entry: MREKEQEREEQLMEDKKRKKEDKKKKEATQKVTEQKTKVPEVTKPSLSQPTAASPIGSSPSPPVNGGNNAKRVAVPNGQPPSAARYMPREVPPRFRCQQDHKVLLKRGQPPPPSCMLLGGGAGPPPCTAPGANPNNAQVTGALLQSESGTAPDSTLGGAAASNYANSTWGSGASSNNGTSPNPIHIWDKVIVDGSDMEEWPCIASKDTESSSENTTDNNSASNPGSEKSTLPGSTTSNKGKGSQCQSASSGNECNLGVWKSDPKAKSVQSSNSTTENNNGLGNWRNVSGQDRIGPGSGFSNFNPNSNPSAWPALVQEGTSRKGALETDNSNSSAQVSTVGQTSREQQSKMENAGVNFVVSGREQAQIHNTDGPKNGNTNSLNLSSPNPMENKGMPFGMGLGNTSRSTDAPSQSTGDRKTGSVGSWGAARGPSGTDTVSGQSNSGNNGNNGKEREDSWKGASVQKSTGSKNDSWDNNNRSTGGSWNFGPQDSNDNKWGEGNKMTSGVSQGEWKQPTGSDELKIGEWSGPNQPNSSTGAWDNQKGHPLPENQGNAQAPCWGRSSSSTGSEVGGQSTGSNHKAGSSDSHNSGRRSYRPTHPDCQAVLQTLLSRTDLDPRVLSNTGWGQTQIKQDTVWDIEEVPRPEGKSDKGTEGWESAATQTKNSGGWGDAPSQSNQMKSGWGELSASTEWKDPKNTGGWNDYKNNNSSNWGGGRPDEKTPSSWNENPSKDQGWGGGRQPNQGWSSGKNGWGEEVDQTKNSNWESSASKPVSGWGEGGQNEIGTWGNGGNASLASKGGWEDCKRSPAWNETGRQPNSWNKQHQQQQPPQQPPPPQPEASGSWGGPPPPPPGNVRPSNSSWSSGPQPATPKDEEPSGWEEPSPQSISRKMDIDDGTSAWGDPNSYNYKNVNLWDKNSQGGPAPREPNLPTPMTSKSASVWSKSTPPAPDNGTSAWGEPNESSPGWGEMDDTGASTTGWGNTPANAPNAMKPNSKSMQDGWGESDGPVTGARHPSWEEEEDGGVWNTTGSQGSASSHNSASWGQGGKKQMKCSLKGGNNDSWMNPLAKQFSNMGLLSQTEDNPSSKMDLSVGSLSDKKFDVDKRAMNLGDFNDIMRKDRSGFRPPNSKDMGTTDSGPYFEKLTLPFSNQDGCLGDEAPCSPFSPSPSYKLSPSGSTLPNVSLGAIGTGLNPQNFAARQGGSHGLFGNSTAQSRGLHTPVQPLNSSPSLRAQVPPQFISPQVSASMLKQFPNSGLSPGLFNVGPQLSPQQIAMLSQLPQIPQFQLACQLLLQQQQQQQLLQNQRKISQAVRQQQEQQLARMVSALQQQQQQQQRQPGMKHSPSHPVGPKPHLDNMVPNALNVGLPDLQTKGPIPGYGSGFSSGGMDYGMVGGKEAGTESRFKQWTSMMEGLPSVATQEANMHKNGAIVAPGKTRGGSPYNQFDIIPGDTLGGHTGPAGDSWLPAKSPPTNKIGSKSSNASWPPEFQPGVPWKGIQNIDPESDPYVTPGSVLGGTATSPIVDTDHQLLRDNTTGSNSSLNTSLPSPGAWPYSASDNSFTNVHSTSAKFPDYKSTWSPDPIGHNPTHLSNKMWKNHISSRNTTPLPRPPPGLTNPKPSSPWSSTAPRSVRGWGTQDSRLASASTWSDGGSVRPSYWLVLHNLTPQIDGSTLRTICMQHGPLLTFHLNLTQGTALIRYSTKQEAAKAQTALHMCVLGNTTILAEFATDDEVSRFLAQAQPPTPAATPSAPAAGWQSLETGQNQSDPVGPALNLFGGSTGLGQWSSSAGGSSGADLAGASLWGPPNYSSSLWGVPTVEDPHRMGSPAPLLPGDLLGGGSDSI
UniProt Q9BZK7: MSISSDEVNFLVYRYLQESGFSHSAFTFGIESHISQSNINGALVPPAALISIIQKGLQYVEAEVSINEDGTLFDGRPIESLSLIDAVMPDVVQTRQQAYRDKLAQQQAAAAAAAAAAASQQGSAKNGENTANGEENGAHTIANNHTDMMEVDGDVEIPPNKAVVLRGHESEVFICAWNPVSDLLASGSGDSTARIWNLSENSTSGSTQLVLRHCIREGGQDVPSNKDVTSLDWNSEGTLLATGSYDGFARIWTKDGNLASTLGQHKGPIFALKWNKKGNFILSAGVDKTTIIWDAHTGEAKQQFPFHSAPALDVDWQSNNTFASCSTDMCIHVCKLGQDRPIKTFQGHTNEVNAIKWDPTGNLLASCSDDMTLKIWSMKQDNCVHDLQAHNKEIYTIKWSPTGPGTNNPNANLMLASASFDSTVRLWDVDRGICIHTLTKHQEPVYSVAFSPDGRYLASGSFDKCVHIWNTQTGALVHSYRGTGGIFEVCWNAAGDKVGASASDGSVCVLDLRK
UniProt Q8TBZ6: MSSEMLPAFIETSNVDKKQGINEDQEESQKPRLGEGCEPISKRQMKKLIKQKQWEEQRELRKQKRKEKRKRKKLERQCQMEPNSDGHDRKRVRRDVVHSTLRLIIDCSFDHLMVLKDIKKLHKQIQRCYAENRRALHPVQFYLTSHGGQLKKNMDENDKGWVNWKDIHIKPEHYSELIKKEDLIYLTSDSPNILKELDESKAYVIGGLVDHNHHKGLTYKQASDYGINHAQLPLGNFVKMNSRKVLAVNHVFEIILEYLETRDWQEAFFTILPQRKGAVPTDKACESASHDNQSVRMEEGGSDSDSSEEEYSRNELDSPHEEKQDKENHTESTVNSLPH

Target	dose-dependent thermal stabilisation call
TSC22D4 (UniProt Q9Y3Q8)	inactive: 0
TPM1 (UniProt P09493)	inactive: 0
TRAFD1 (UniProt O14545)	inactive: 0
TPI1 (UniProt P60174)	inactive: 0
TYW3 (UniProt Q6IPR3)	inactive: 0
TASP1 (UniProt Q9H6P5)	inactive: 0
THEMIS (UniProt Q8N1K5)	inactive: 0
TRIO (UniProt O75962)	inactive: 0
TNPO3 (UniProt Q9Y5L0)	active: 1
TMSB10 (UniProt P63313)	inactive: 0
TRMT61B (UniProt Q9BVS5)	inactive: 0
TWSG1 (UniProt Q9GZX9)	inactive: 0
TRIP13 (UniProt Q15645)	active: 1
TOLLIP (UniProt Q9H0E2)	inactive: 0
TLN2 (UniProt Q9Y4G6)	inactive: 0
U2AF2 (UniProt P26368)	active: 1
TRAPPC2 (UniProt P0DI81)	active: 1
TIFA (UniProt Q96CG3)	inactive: 0

Fetched one by one from the entries so far, 2 records:
Target	dose-dependent thermal stabilisation call
THEMIS (UniProt Q8N1K5)	inactive: 0
TPI1 (UniProt P60174)	inactive: 0

(next part)

Target	dose-dependent thermal stabilisation call
TBC1D4 (UniProt O60343)	inactive: 0
THOC2 (UniProt Q8NI27)	inactive: 0
TIA1 (UniProt P31483)	inactive: 0
TNRC6B (UniProt Q9UPQ9)	inactive: 0
TRIOBP (UniProt Q9H2D6)	inactive: 0
THUMPD1 (UniProt Q9NXG2)	inactive: 0
TRMT1 (UniProt Q9NXH9)	active: 1
TOX4 (UniProt O94842)	inactive: 0
TBL1XR1 (UniProt Q9BZK7)	inactive: 0
TNFRSF8 (UniProt P28908)	inactive: 0
TBK1 (UniProt Q9UHD2)	active: 1
U2AF1L5	active: 1
TXNRD3 (UniProt Q86VQ6)	inactive: 0
TATDN2 (UniProt Q93075)	inactive: 0
TFRC (UniProt P02786)	active: 1
TRMT10A (UniProt Q8TBZ6)	active: 1
TIPIN (UniProt Q9BVW5)	inactive: 0
TTLL12 (UniProt Q14166)	active: 1

Reference: the supplement of paper PMC7666118
